{
  "source": "patent US11065304B2",
  "about": "(MEDERIS DIABETES, LLC, priority 2012, dated 2021)",
  "test": "general procedure: Fmoc solid-phase peptide synthesis; HMP amide resin; DIC/HOBt",
  "settings": "whole synthesis, analytical hplc (CH3CN in 0.1% TFA)/mass spectrometry, scale 2 mmole",
  "data": [
    {"substance": "His1-Aib2-Gln3-Gly4-Thr5-Phe6-Thr7-Ser8-Asp9-Tyr10-Ser11-Lys12-Tyr13-Leu14-Asp15-Glu*16-Gln17 Ala18-Ala19-Lys*20-Glu21-Phe22-Ile23-Lys(N-omega(1-tetradecyl beta-D-melibiouronyl))24-Trp25-Leu26-Leu27-Gln28-Thr29-NH2", "values": [
      {"measurement": "final HPLC purity", "result": 98.7, "unit": "%"}
    ]}
  ]
}
